Measurements taken from article PMC9638024, “Functional rewiring of G protein-coupled receptor signaling in human labor” (Cell Reports, 2022).
Results are given in words; binding and its absence hold for the method and conditions named. Binding seen in cells or lysates may run through a third protein. Some binding calls cover weakened binding; strength is not graded here.

Sequences of proteins named here, by UniProt entry; tags and fusion partners are left off.
UniProt P43116: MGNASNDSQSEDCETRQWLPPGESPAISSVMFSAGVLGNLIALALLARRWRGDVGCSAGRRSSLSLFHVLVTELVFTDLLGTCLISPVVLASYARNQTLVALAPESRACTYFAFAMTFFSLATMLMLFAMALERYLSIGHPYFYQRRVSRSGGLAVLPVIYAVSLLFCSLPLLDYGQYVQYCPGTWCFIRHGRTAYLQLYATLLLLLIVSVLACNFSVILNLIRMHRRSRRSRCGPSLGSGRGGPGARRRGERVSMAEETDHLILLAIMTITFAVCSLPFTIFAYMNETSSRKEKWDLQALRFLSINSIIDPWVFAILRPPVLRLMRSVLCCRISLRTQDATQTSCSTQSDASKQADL
UniProt P30559: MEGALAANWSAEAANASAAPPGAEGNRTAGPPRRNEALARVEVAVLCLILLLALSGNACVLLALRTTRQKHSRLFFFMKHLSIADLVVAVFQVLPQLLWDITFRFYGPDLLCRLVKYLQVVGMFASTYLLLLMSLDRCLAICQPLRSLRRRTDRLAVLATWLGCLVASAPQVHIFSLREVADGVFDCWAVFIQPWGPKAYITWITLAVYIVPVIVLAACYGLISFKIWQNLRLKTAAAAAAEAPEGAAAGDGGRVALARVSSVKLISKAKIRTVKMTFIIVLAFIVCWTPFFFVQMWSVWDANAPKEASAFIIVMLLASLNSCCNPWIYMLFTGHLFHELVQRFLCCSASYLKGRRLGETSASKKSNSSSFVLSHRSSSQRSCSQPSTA

Legend:
[1] = biological target: endogenous EP2 (prostaglandin E2 receptor EP2) (human (endogenous in primary myometrial cells)) (UniProt P43116); experiment: proximity ligation; Duolink In situ Orange kit Goat/Rabbit; anti-EP2 rabbit (H-75) and anti-OTR goat (N-19) at 1:50; primary myocyte cultures of non-laboring myometrium, before and after OT treatment
[2] = biological target: Rluc8-tagged EP2 (prostaglandin E2 receptor EP2) (human) (UniProt P43116); experiment: FRET or BRET; BRET in living primary human myocytes from term-pregnant myometrium; 1 ug EP2-Rluc and increasing amounts of OTR-Venus (0.01-2 ug) transfected; coelenterazine-h 5 uM
[3] = biological target: Rluc8-tagged EP2 (prostaglandin E2 receptor EP2) (human) (UniProt P43116); experiment: FRET or BRET; BRET in living HEK 293 cells; 1 ug EP2-Rluc and increasing amounts of OTR-Venus (0.01-2 ug) transfected; 48 h after transfection, coelenterazine-h 5 uM, emission at 488 nm and 530 nm

Row | Substance | binding [1] | binding [2] | binding [3]
1 | endogenous OTR (oxytocin receptor) (from UniProt P30559 1-389) | binds | – | –
2 | Venus-tagged OTR (oxytocin receptor) (from UniProt P30559 1-389) | – | binds | binds
